From publication PMC8327961, “Nse5/6 inhibits the Smc5/6 ATPase and modulates DNA substrate binding” (The EMBO Journal, 2021)
These are yes or no findings as the source states them, for the method shown. Some results given as binding are weak or reduced against the parent protein; the word gives no strength. For part of these data: Tags and fused reporters may be left off the sequences shown. Each block holds one binder with its values, some of them ahead of it.

Legend:
Smc6-3C-Twin-Strep [1] = target: T1, Smc6-3C-Twin-Strep (S. cerevisiae, UniProt Q12749 1-1114); test: pull-down; purified octamer pulled down via Smc6-Twin-Strep, in the absence or presence of ATP and plasmid DNA, conditions as for XL-MS; both purified
T1 construct: Smc6, S. cerevisiae; stood in the assays as a subunit of the hexamer or octamer; also called Smc6-Twin-Strep; Smc6-3C-TS; source: E. coli (DE3) Rosetta, co-expressed with the other subunits of the hexamer, purified as part of the complex; not shown: Twin-Strep (after a 3C site), C-terminal, kept
T1 sequence (looked up): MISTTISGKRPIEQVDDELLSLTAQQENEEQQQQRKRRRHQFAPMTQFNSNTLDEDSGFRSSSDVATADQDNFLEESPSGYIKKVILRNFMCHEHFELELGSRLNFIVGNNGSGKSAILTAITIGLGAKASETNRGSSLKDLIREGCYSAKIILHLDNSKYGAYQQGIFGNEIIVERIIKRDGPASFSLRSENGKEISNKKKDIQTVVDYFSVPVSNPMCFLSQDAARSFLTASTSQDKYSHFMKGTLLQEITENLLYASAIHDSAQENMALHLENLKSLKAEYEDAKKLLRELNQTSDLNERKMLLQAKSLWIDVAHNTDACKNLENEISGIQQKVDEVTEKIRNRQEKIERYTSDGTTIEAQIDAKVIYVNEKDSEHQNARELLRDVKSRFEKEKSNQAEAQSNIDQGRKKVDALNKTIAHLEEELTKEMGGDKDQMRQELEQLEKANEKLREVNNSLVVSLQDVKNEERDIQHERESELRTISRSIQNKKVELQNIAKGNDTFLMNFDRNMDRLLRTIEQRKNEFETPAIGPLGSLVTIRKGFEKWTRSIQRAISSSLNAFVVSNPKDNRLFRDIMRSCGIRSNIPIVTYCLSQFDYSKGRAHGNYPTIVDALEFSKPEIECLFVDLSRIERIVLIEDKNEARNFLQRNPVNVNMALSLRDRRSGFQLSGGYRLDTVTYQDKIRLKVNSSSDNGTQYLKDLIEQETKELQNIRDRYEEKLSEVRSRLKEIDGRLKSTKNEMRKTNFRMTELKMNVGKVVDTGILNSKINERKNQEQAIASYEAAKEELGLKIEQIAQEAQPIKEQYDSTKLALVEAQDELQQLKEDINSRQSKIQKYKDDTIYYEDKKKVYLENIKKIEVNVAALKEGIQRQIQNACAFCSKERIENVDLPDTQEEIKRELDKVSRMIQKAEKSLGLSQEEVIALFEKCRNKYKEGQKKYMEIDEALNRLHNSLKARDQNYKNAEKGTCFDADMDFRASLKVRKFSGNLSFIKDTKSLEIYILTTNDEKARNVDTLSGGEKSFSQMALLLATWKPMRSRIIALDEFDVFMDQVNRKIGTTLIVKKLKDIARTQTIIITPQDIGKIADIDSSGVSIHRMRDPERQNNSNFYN

Nse4 (S. cerevisiae) = target: T2, Nse4 (S. cerevisiae) (UniProt P43124); test: cross-linking; XL-MS with PhoX (0.25 mM, 20 min, RT) on the octamer, 1.6 µM; ATPase buffer (10 mM Hepes-KOH pH 7.5, 150 mM potassium acetate, 2 mM MgCl2, 20% glycerol); without and with 2 mM ATP and 16 nM plasmid DNA; wild-type and Smc5(EQ)/Smc6(EQ) octamers; both purified
T2 sequence: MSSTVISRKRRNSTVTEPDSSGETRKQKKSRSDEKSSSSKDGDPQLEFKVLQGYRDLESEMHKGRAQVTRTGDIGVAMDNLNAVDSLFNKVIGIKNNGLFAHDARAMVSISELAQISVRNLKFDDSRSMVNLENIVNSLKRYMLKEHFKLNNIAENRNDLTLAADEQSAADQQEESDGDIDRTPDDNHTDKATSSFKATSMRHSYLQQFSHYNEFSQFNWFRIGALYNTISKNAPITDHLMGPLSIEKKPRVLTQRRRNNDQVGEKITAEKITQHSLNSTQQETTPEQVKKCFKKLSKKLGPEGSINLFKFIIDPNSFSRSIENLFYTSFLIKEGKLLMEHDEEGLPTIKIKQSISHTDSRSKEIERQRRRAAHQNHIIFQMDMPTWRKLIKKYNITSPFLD

Smc5 (S. cerevisiae) [2] = target: T3, Smc5 (S. cerevisiae) (UniProt Q08204); test: as above
T3 sequence: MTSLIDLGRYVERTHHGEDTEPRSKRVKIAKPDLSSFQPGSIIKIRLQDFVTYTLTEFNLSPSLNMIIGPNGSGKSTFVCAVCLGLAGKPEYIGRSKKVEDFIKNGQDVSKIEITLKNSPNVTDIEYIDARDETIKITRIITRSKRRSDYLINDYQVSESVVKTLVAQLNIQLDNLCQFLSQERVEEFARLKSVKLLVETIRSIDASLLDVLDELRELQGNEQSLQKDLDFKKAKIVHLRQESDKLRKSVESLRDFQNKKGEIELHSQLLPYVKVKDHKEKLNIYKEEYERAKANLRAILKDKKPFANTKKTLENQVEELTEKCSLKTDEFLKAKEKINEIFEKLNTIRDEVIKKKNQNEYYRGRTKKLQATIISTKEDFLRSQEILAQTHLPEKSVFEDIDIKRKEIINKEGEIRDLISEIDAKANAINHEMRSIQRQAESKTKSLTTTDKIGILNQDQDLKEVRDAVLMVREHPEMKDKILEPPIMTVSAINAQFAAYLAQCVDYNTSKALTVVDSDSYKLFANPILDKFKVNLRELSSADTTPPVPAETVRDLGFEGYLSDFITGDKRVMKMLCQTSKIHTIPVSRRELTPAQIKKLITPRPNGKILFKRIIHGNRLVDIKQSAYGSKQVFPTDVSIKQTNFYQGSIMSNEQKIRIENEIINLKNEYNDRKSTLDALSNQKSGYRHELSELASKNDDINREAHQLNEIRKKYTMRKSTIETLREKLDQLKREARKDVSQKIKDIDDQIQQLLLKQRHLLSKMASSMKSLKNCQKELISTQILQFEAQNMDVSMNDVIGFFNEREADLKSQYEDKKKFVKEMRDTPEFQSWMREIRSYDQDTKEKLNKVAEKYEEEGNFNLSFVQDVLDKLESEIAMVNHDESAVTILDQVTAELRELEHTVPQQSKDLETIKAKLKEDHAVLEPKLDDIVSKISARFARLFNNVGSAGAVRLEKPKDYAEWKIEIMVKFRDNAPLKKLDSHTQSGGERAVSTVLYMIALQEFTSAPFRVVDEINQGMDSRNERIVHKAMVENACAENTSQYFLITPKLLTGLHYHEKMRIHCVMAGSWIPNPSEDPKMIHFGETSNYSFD

Smc6-3C-Twin-Strep [3] = target: T1, Smc6-3C-Twin-Strep; test: co-purification; six subunits co-expressed in E. coli from one plasmid; captured by the Twin-Strep-tag on Smc6 (StrepTrap), then heparin and gel filtration; single species on analytical gel filtration, peak fractions on SDS-PAGE
Smc5 (S. cerevisiae) [4] = target: T3, Smc5 (S. cerevisiae); test: cross-linking; XL-MS with the lysine-reactive PhoX (0.25 mM, 20 min, RT) on the reconstituted octamer, 1.6 µM; salt buffer 20 mM Hepes-KOH pH 7.5, 250 mM NaCl; both purified

binding (Smc6-3C-Twin-Strep [1]): binds
binding (Nse4 (S. cerevisiae)): binds
binding (Smc5 (S. cerevisiae) [2]): binds
binding (Smc6-3C-Twin-Strep [3]): binds
B1: Nse3 (natural protein, S. cerevisiae, UniProt Q05541 1-303, looked up)
chain: MSSIDNDSDVDLTEDLAVAKIVKENPVARKMVRYILSRGESQNSIITRNKLQSVIHEAAREENIAKPSFSKMFMDINAILYNVYGFELQGLPSKNNMNAGGNGSNSNTNKSMPEPLGHRAQKFILLNNVPHSKNFDDFKILQSAHTYEELIVTGEYIGDDIASGTSNTLESKLSTDRDLVYKGVLSVILCIVFFSKNNILHQELIKFLETFGIPSDGSKIAILNITIEDLIKSLEKREYIVRLEEKSDTDGEVISYRIGRRTQAELGLESLEKLVQEIMGLEKEQTKSLHDDIIKSIGDSYSI
notes: Nse3, S. cerevisiae; source: E. coli (DE3) Rosetta, co-expressed with the other subunits of the hexamer, purified as part of the complex

binding (Smc6-3C-Twin-Strep [1]): binds
binding (Smc5 (S. cerevisiae) [2]): binds
binding (Smc6-3C-Twin-Strep [3]): binds
B2: Nse4 (natural protein, S. cerevisiae, UniProt P43124 1-402, looked up)
chain: T2 sequence
notes: Nse4, S. cerevisiae; also called kleisin Nse4; source: E. coli (DE3) Rosetta, co-expressed with the other subunits of the hexamer, purified as part of the complex

binding (Smc5 (S. cerevisiae) [4]): binds
B3: Nse5-AviTag (from Nse5-AviTag-3C-Twin-Strep, Twin-Strep removed) (natural protein, S. cerevisiae, UniProt Q03718 1-556, looked up)
chain: MDGALINSVLYVSPRNGAHYFVELTEKHLLAFEMLNSMCLLENYDHVLLFLECQFGKSHNLAVIPFDIILVLFTLSTLSEYYKEPILRANDPYNTSRETLSRRALKLLQKYLAILKEFDSEQYNLYDLELLRCQFFLAIDTLTPKKQKWGFDRFRRTKSESGVTYRQNASVDPELDQAKTFKNPYRSYISCLEQRNTILGNRLLNLKLNEPGEFINMILWTLSNSLQESTPLFLSSHEIWMPLLEILIDLFSCRQDYFIQHEVAQNVSKSLFVQRLSESPLAVFFESLNTRNFANRFSEYVFLNCDYKLPSDNYATPVHPVYNGENTIVDTYIPTIKCSPLYKSQKSLALRRKLIGSCFKLLLRVPDGHRLITPRIVADDVIQGISRTLASFNDILQFKKFFMTENLSQESYFIPLLAEGTLSEILKDTQECVVILTLVENLSDGVSFCNEVIGLVKSKCFAFTEQCSQASYEEAVLNIEKCDVCLLVLLRYLLHLIGTEAILDAKEQLEMLHAIEKNDSGRRQWAKALNLGNDPPLLYPIVSQMFGVHDKSVIIE
notes: Nse5, S. cerevisiae, full length; subunit of the octamer used for XL-MS; the AviTag lies before the 3C site and should remain; source: E. coli (DE3) Rosetta, co-expressed with Nse6, purified (StrepTrap, heparin, SEC); Twin-Strep removed by HRV-3C; not shown: Twin-Strep (after a 3C site), C-terminal, cleaved

binding (Smc6-3C-Twin-Strep [1]): binds
binding (Smc6-3C-Twin-Strep [3]): binds
B4: Nse1 (protein, UniProt Q07913 1-336)
chain: MEVHEEQVSAPVTGDATAKYLLQYILSARGICHENALILALMRLETDASTLNTEWSIQQWVDKLNDYINAINVKLNLLGYKIIRINHGIGRNAVTLKAKQNFESFEDNTAIRAHNNDYAVLQSIVLPESNRFFVYVNLASTEETKLATRFNQNEIEFMKWAIEQFMISGETIVEGPALETSIIVKEVNRILVAATGDSNLAKWRKFSTFTVGSTNLFQFQELTATDIEDLLLRLCELKWFYRTQEGKFGIDLRCIAELEEYLTSMYNLNTCQNCHKLAIQGVRCGNESCREENEETGENSLSQIWHVDCFKHYITHVSKNCDRCGSSLITEGVYVI

binding (Smc5 (S. cerevisiae) [2]): binds
binding (Smc6-3C-Twin-Strep [3]): binds
B5: Nse2 (natural protein, S. cerevisiae, UniProt P38632 1-267, looked up)
chain: MALNDNPIPKSVPLHPKSGKYFHNLHARDLSNIYQQCYKQIDETINQLVDSTSPSTIGIEEQVADITSTYKLLSTYESESNSFDEHIKDLKKNFKQSSDACPQIDLSTWDKYRTGELTAPKLSELYLNMPTPEPATMVNNTDTLKILKVLPYIWNDPTCVIPDLQNPADEDDLQIEGGKIELTCPITCKPYEAPLISRKCNHVFDRDGIQNYLQGYTTRDCPQAACSQVVSMRDFVRDPIMELRCKIAKMKESQEQDKRSSQAIDVL
notes: Nse2, S. cerevisiae; source: E. coli (DE3) Rosetta, co-expressed with the other subunits of the hexamer, purified as part of the complex
